“Also recorded” adds a separate entry of the source. Where a name gives a salt, the structure may show the parent alone.
System: rats chronically treated with morphine
Assay: Apnea, sleep architecture and ventilatory response in rats chronically treated with morphine
Assay type: in vivo, Adult male lean Zucker rats
Conditions: 7 mg/kg PO, versus vehicle, hydrogen sulfate
Description: The objective of this study was to quantify the effects of select compounds of this invention on apnea, ventilation and sleep structure in a rat model. The study consisted of two treatment conditions: (1) chronic morphine and test compound, such as Compound 5b administered orally (7 mg/kg, PO), and (2) chronic morphine and oral vehicle. Adult male lean Zucker rats were anesthetized for electroencephalogram (EEG) and electromyogram (EMG) telemeter implantation. At least 1 week was permitted post-surgery before animals were used further. Morphine sulfate was added to the drinking water of singly housed rats beginning with 0.1 mg/ml morphine and increasing the concentration in increments so that a final concentration of 0.6 mg/ml was achieved within 2 weeks. […] Minute volume and the number of central sleep apneas (CSA) were measured during all treatment conditions. […]
Compound 5b (7 mg/kg) or an equivalent volume of vehicle was administered via an oral gavage tube at 12 pm. […] Breathing data during wakefulness was not analyzed because movement prevents measurement of accurate volumes when using whole-body plethysmography. When differences were detected with ANOVA, Student-Neuman-Keuls post hoc tests were run for all main effects and interactions. […] Values are expressed as means±SE.

C#CCNc1nc(NCCC)nc(N(C)OC)n1 [Compound 5b, O,N-Dimethyl-N-[4-(n-propylamino)-6-(prop-2-ynylamino)-[1,3,5]triazin-2-yl]-hydroxylamine hydrogen sulfate]
percent time spent in NREM sleep: No differences were observed; also recorded: no visible effect; also recorded: does alter time spent in NREM
percent time spent in REM sleep: no visible effect; also recorded: does not alter
